# Data reported in US20220002806A1, “BIOMARKER” (ERBER AKTIENGESELLSCHAFT, priority 2018, published 2022).
# Key:
# miRNAs in uterus tissue = assay: Small RNA sequencing (RNA-Seq) of miRNAs in uterus tissue of ZEN-exposed piglets; format: in vivo, pig (Sus scrofa); conditions: for number of miRNAs significantly affected in uterus: out of 224 miRNAs, adjusted p ≤0.07
# Excerpt: (§1) Weaned female piglets (sow: Landrace×Large White, boar: Pietrain; 30+/−2 days old) were obtained from a local producer and individually tagged. Piglets were housed in slatted floor pens under controlled environmental conditions. After an acclimatization period of seven days, twenty-four female piglets were selected based on both body weight and vulva size, and allocated to one of four groups (6 animals/group). Piglets received either blank feed (negative control; Ctrl) or feed contaminated with ZEN in three increasing concentrations (ZEN low: 0.17 mg/kg diet; ZEN medium: 1.5 mg/kg diet; ZEN high: 4.6 mg/kg diet). During the 28-day experimental period, each treatment group was given free access to water and the assigned diet. The pigs were observed daily and weighed weekly.
# After 28 days of dietary exposure to the experimental diets, pigs were anesthetized by intramuscular injection of ketamine (0.1 mL/kg body weight (b.w.) Narketan®, Vétoquinol GmbH, Ravensburg, Germany) and azaperone (0.03 mL/kg b.w.; Stresnil®, Janssen-Cilag, Neuss, Germany). […]
# miRNA Extraction and Library Preparation: A total of 18 animals was used for investigations on the miRNA profile in the tissues: 6 from Ctrl, 4 from ZEN low, 4 from ZEN medium, and 4 from ZEN high. […] Barcoded DNA libraries were purified using the QIAQuick PCR purification protocol (Qiagen, Hilden, Germany) and quantified using the DNA 1000 high sensitivity chip (Agilent Technologies, Germany). […]
# RNA sequencing (RNA-Seq) Bioinformatics Analysis: Total reads were adapter trimmed using Cutadapt and quality filtered (Q-Score >30) using the FastQC tool. Trimmed and quality filtered reads were aligned to reference miRNA sequences in miRBase release 21 (www.mirbase.org; Kozomora and Griffiths-Jones. 2014. Nucleid Acids Research, 42, D68-D73) using bowtie2. Subsequently, reads were mapped against the Sus scrofa genome assembly Sscrofa10.2 as well as Ensembl small non-coding RNA reference databases. Reads were normalized to the total read count per library to generate tags per million (TPM) values. […]
# miRNAs in serum = assay: Targeted qPCR-based miRNA analysis in blood serum of ZEN-exposed piglets; format: in vivo, pig; conditions: Ctrl vs ZEN high group, unadjusted p-value ≤0.1
# Excerpt: as §1
# Blood was collected weekly (d 0, 6, 14, 21 and 28) from individual animals by punctuation of the vena cava cranialis (Primavette® EDTA, Kabe Labortechnik GmbH, Nümbrecht-Elsenroth, Deutschland). After centrifugation (1500×g, 20 min), serum samples were stored at −80° C. for later analysis. Vulva length and width were measured at regular intervals with a caliper to determine the dietary ZEN effects. The vulva area was calculated as vulva length×vulva width, as previously reported (Jiang et al. 2011. Journal of animal science, 89, 3008-3015). Eight measurements were done per piglet over the experimental period. […]
compound,measurement,setting,value
"C[C@H]1CCCC(=O)CCC/C=C/c2cc(O)cc(O)c2C(=O)O1 [ZEN, (2E,11S)-15,17-dihydroxy-11-methyl-12-oxabicyclo[12.4.0]octadeca-1(18),2,14,16-tetraene-7,13-dione]",number of miRNAs significantly affected in uterus,miRNAs in uterus tissue; ZEN high (4.6 mg/kg diet),74
same,number of miRNAs significantly affected in uterus,miRNAs in uterus tissue; ZEN medium (1.5 mg/kg diet),16
same,number of miRNAs commonly affected in uterus,miRNAs in uterus tissue; in ZEN medium and ZEN high group,14
same,number of serum miRNAs showing up- or down-regulation,miRNAs in serum; day 6,Three
same,number of serum miRNAs showing up- or down-regulation,miRNAs in serum; day 28,five
